Data reported in the supplement of paper PMC12819154, “High-throughput peptide-centric local stability assay extends protein–ligand identification to membrane proteins, tissues and bacteria” (Nature Structural & Molecular Biology, 2025).
Some of the results follow. Most values lie at the level of the controls, where differences are scatter.

By UniProt entry, the sequences of proteins in these tests, tags left out. Where a name states a change or a piece, a line headed by the entry shows the natural chain unless it says otherwise.
UniProt Q65Z40: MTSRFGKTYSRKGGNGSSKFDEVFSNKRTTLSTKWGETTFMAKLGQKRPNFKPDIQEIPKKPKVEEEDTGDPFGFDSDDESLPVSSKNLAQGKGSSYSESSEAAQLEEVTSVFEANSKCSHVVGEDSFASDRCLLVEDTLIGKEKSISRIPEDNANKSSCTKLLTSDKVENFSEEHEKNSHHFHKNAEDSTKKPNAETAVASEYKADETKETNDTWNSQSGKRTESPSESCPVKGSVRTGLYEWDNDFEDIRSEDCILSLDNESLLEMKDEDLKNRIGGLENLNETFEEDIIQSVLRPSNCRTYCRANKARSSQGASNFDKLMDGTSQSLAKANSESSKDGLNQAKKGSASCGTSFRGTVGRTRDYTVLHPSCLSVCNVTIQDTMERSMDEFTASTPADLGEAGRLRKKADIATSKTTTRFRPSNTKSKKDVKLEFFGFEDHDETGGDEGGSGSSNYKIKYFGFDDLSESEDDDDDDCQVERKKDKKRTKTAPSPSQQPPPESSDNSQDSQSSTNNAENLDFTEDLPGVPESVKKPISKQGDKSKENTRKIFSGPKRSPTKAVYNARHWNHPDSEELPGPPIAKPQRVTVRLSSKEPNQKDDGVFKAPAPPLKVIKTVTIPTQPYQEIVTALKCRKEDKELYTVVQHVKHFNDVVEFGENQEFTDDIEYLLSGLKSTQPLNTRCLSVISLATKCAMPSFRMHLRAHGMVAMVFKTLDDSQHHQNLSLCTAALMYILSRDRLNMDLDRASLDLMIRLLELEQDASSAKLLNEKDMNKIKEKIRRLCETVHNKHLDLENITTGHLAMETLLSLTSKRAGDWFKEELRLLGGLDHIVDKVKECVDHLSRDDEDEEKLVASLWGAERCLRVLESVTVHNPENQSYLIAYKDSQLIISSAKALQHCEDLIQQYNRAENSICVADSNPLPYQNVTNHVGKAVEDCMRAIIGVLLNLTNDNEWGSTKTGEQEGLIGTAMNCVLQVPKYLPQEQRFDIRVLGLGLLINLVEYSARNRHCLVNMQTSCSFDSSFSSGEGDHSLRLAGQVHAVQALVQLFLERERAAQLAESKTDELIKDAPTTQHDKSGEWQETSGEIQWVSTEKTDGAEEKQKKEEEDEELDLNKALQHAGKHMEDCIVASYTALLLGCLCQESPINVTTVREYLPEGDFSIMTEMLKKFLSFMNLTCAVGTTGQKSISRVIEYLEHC
UniProt Q61686, whole entry: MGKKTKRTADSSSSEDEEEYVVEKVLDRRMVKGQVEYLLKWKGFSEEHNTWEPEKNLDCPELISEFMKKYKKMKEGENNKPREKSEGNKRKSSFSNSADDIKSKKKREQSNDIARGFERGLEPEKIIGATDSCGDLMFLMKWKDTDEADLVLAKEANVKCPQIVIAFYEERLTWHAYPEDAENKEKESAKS
UniProt Q61009: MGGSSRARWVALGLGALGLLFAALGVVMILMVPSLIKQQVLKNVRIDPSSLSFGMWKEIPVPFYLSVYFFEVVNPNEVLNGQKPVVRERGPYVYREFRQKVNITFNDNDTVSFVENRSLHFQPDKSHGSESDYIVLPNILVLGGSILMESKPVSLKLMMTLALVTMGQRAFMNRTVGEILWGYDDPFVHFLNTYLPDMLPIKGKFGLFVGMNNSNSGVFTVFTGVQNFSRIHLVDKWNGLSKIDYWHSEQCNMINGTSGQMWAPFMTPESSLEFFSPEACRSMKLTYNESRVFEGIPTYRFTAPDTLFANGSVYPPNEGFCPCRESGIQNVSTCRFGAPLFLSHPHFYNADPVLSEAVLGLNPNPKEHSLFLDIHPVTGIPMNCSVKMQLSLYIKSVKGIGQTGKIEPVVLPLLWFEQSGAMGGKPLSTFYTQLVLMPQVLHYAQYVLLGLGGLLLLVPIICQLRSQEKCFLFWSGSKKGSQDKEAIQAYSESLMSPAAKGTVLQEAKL
UniProt Q64726: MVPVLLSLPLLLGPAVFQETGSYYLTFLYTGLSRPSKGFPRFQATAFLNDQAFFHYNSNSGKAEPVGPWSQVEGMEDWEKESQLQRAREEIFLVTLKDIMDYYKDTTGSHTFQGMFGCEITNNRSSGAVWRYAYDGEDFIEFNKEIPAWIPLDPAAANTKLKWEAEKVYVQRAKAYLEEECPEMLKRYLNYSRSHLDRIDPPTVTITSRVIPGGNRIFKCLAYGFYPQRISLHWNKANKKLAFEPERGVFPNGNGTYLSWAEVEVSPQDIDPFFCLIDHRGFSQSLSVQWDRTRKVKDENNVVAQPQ
UniProt Q61768: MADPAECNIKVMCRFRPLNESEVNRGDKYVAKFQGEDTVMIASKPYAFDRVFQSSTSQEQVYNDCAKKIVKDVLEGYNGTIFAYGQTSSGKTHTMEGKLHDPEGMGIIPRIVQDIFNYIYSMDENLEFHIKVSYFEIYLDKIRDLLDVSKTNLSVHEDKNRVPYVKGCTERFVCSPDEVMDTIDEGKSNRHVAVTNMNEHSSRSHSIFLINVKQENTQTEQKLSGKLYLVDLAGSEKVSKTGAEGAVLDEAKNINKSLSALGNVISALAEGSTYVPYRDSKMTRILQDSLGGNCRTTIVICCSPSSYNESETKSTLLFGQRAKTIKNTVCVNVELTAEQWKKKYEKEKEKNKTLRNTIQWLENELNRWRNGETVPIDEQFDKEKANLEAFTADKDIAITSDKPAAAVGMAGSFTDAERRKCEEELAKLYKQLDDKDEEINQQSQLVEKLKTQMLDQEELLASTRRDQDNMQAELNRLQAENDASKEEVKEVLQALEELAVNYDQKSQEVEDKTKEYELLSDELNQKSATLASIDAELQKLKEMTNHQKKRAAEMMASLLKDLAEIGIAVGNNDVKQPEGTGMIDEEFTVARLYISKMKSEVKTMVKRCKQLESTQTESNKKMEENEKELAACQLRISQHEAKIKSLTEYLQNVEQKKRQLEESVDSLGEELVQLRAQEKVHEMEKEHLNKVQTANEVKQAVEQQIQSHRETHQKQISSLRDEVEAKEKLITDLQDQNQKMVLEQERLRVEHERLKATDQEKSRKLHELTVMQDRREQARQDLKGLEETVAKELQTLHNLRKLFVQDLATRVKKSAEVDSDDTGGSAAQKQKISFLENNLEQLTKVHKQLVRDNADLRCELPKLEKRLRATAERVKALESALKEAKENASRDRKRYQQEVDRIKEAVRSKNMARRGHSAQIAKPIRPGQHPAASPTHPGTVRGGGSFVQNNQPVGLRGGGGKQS
UniProt Q6NT99: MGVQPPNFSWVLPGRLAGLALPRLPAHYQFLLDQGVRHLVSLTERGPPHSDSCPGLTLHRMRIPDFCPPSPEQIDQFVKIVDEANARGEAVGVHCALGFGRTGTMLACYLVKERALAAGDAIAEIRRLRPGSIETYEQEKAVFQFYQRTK
UniProt Q61171: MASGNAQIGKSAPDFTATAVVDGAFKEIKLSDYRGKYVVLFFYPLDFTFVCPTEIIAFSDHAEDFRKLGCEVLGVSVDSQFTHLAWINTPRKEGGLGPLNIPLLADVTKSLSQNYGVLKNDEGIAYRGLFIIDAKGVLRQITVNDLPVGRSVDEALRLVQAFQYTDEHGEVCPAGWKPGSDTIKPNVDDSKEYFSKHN
UniProt Q62165: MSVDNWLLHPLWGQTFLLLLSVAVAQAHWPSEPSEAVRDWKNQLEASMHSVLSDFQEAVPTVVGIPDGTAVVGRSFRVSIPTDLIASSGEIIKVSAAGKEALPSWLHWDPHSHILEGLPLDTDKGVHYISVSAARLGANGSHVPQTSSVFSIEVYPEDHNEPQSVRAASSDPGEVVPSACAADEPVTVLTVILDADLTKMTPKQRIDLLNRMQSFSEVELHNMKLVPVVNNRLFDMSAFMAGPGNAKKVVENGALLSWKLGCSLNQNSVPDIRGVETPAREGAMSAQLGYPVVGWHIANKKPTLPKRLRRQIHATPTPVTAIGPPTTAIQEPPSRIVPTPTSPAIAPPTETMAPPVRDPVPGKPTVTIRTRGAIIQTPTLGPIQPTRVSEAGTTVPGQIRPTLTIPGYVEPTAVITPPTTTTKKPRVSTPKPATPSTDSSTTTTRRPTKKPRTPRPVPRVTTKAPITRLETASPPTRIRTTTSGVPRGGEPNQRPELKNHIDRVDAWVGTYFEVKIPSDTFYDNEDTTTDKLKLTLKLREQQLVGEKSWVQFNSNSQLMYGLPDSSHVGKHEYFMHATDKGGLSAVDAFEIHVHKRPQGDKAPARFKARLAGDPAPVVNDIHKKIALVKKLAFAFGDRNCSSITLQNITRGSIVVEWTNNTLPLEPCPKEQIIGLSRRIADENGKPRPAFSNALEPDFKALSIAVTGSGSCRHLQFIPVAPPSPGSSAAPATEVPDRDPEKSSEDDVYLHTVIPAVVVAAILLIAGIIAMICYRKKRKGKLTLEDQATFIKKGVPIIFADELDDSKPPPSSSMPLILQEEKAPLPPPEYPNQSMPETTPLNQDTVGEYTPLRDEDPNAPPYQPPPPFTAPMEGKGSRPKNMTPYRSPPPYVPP
UniProt Q61176: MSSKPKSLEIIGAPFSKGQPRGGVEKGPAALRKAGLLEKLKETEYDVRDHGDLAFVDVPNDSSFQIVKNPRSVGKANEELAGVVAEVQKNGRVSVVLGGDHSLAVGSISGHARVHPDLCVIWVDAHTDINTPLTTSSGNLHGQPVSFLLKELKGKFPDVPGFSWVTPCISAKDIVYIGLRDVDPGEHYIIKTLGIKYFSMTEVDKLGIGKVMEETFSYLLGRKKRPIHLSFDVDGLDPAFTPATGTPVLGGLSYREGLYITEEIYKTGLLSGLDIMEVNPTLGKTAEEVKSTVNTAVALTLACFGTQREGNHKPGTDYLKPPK
UniProt Q62523: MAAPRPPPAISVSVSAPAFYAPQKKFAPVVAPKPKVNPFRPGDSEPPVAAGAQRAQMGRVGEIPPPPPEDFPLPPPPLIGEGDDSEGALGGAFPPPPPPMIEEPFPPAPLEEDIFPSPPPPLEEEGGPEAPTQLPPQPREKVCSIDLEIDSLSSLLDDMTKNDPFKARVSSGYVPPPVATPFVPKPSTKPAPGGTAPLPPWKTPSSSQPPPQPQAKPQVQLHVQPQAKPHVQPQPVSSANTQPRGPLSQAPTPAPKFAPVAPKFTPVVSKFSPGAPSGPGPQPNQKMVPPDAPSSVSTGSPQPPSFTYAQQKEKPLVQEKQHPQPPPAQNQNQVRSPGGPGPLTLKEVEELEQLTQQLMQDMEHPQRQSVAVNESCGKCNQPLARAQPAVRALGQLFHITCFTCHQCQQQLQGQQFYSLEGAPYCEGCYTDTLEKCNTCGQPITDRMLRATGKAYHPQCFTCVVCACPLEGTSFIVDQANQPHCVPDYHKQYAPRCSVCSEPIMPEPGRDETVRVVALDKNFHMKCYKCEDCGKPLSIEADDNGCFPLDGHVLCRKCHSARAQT
UniProt Q60759: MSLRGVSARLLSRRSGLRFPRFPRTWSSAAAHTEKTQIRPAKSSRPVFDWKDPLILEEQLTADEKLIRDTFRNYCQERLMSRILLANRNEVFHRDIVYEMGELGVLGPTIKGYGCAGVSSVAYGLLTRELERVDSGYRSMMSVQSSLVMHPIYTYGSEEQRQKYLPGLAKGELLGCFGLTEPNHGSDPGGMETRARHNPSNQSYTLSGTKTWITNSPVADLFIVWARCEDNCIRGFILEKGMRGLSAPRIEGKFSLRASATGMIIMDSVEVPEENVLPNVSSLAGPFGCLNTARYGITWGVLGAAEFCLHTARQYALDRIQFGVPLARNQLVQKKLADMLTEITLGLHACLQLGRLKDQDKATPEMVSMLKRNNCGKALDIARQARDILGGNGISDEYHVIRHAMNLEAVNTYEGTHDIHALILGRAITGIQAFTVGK
UniProt Q61146: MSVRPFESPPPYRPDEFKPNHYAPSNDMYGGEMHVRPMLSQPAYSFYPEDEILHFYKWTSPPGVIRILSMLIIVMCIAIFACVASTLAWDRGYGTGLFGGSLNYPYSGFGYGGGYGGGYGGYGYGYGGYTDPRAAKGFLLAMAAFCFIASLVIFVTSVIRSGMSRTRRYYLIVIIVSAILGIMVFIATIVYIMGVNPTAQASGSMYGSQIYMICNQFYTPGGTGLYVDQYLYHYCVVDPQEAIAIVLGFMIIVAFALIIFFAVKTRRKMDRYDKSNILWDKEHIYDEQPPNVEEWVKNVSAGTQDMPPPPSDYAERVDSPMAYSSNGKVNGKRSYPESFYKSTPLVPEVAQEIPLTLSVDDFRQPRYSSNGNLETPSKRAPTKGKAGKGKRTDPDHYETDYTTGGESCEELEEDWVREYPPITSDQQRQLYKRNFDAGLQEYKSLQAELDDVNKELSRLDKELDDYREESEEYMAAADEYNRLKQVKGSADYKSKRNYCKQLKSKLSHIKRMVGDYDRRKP
UniProt Q61166: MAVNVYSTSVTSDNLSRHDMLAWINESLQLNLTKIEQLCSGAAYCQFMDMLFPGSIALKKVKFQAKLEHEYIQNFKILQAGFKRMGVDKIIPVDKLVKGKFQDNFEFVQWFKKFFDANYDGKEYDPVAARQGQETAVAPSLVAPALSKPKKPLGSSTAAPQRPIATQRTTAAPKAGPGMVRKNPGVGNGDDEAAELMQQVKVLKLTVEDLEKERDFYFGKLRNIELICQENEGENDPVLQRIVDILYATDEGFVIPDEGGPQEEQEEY

compound: CN[C@@H]1C[C@H]2O[C@@](C)([C@@H]1OC)n1c3ccccc3c3c4c(c5c6ccccc6n2c5c31)C(=O)NC4 [staurosporine]; test: log2 fold change of pooled soluble protein (PISA), ligand vs vehicle (log2 ratio); higher = more thermally stabilized; details: ligand concentration: 20 uM; assay format: PISA pool 52.9/55.5/58.6 C

| Target | log2 fold change of pooled soluble protein |
| --- | --- |
| UniProt Q6DFX2 | -0.27 |
| UniProt Q62189 | -0.0263 |
| UniProt Q65Z40 | -0.0915 |
| UniProt Q5U405 | 0.0302 |
| UniProt Q60829 | -0.659 |
| UniProt Q62261 | -0.0322 |
| UniProt Q61686 | 0.149 |
| UniProt Q61090 | -0.146 |
| UniProt Q61009 | -0.243 |
| UniProt Q64726 | -0.057 |
| UniProt Q6A026 | -0.0733 |
| UniProt Q6A068 | -0.219 |
| UniProt Q61768 | -0.1 |
| UniProt Q61464 | -0.0603 |
| UniProt Q6KCD5 | 0.0194 |
| UniProt Q6NT99 | -0.125 |
| UniProt Q5SXA9 | -0.0795 |
| UniProt Q61171 | -0.000857 |
| UniProt Q62165 | -0.00523 |

Looked up above:
Value for UniProt Q62165 under log2 fold change of pooled soluble protein: -0.00523
Value for UniProt Q61686 under log2 fold change of pooled soluble protein: 0.149

(continued)

| Target | log2 fold change of pooled soluble protein |
| --- | --- |
| UniProt Q61503 | 0.0139 |
| UniProt Q61176 | -0.0227 |
| UniProt Q62523 | 0.244 |
| UniProt Q61656 | -0.0169 |
| UniProt Q69ZP3 | -0.284 |
| UniProt Q60759 | -0.0375 |
| UniProt Q6A0A9 | 0.0418 |
| UniProt Q61146 | 0.0112 |
| UniProt Q61191 | -0.00792 |
| UniProt Q5SX79 | -0.069 |
| UniProt Q5SZA1 | 0.157 |
| UniProt Q61026 | 0.0455 |
| UniProt Q61166 | -0.0786 |
| UniProt Q60953 | 0.0542 |
| UniProt Q64092 | -0.0975 |
| UniProt Q5XG73 | 0.012 |
| UniProt Q60648 | -0.031 |
| UniProt Q62264 | -0.24 |
